Source: patent US12392781B2, “Deuterated indole heptamethine cyanine dyes” (University of Notre Dame du Lac, priority 2021, dated 2025)
At least one structure is not confirmed: it was looked up by name or label, or the drawing left a doubt.

Protein sequences, listed by entry. Tags and fused reporters are not part of them. Residues count along the entry.
UniProt P02769, 25-607: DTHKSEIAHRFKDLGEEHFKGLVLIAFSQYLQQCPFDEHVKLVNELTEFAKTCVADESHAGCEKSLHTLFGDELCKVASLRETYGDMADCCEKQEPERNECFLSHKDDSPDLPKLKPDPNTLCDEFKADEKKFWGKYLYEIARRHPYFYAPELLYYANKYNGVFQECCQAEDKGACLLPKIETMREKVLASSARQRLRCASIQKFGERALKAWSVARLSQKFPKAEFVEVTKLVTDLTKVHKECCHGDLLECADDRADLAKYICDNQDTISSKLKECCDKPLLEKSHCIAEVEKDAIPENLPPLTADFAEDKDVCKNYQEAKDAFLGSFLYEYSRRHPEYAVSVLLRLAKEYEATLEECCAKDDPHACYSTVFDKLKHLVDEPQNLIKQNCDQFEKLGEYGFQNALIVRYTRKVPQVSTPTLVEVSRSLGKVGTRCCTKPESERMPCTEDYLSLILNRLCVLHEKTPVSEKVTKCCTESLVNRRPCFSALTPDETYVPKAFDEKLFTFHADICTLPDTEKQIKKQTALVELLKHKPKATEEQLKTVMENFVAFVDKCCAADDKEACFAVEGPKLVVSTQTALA

What was measured:
[1] = Photophysical properties at room temperature (absorption, fluorescence, quantum yield); assay type: physicochemical; details: for λ abs max / λ em max / ε: room temperature; for ε: Beer-Lambert fit 1-5 μM; for ΦF (fluorescence quantum yield): absolute (integrating sphere) for ICG, ICG-d5, ICG-d7, relative to ICG for 1; for Brightness: in M^-1 cm^-1 (unit assumed)
Protocol: Reagents and solvents were purchased from Sigma-Aldrich, VWR, Oakwood, Thermo Fisher and used without further purification unless stated otherwise. Column chromatography was performed using Biotage Sfär C18 Duo columns (part #FSUD-0401). Reverse- phase thin layer chromatography (TLC) experiments were performed on C18 TLC plates with F254s indicator (MilliporeSigma, part #1.15683). ^1H NMR spectra were recorded on a Bruker 500 NMR spectrometer. Chemical shifts are presented in ppm and referenced by residual solvent peak. High-resolution mass spectrometry (HRMS) was performed using a time-of-flight (TOF) analyzer with electrospray ionization (ESI), with sample dilution in water/acetonitrile as the standard produre. Electronic absorption spectra were recorded on an Evolution 201 UV/vis spectrometer with Thermo Insight software. Fluorescence spectra were collected on a Horiba Fluoromax-4 fluorometer with a maximum detection wavelength of 850 nm. Analyte solutions were prepared on the lab bench (exposed to air and light) using in HPLC grade water (Sigma-Aldrich), dimethylsulfoxide (Sigma-Aldrich), pH 7.4 1× phosphate buffered saline (Thermo Fisher) or fetal bovine serum (Sigma-Aldrich). Stock solutions for spectroscopy studies were prepared and used within 2 hours. All absorption and fluorescence spectra were collected using quartz cuvettes (1 mL, 1 cm path length).
Samples were excited at 730 nm with optical density≤0.05. First, photons were recorded with an integrating sphere after the excitation of a blank solvent reference, then the reference was replaced by a sample solution, and the spectrum (720-875 nm) was acquired again. The quantum yield was calculated by the equation below:
[formula] where P is the number of photons, F is the fluorescence intensity and E is the intensity at the excitation wavelength. Experiments were conducted in triplicate, with the reported absolute quantum yields corresponding to the mean value±standard deviation.
The fluorescence spectrum of each solution was obtained with excitation at 720 nm, and the integrated area was used to calculate the quantum yield according to the following equation:
[formula] where η is the refractive index of the solvent, I is the integrated fluorescence intensity, and A is the absorbance at a chosen wavelength. The estimated error for this method is ±15%.

[2] = target: bovine serum albumin (BSA) (Bos taurus, UniProt P02769); test: Bovine serum albumin (BSA) binding by tryptophan fluorescence quenching titration; details: pH 7.4 PBS buffer, 37° C., N=3
Protocol: The titration experiments measured quenching of bovine serum albumin (BSA, 1 mL of 2 μM solution in pH 7.4 PBS buffer) tryptophan fluorescence at 37° C. as dye was added incrementally. A fluorescence spectrum (ex: 280 nm, slit width: 2 nm) was acquired after each dye aliquot was added (2 μL of 1 mM dye stock solutions in water). After each aliquot addition, the solution was mixed and allowed to equilibrate at 37° C. for 5 min before spectral acquisition. Association constants were determined by plotting the change in fluorescence intensity at 345 nm verses molar equivalents using 1:1 binding stoichiometry on the BindFit software. Experiments were done in triplicates. Equations for determining association and dissociation constant are shown below:
[formula] [formula] where F is the fluorescence intensity of tryptophan after adding certain amount of dye, k is the proportionality constant for BSA tryptophan under the experimental condition, Ka is the association constant, [BSA]

## CC1(C)C(=CC=CC=C(C=CC2=[N+](CCCCS(=O)(=O)[O-])c3ccc4ccccc4c3C2(C)C)C(C=CC2=[N+](CCCCS(=O)(=O)[O-])c3ccc4ccccc4c3C2(C)C)=CC=CC=C2N(CCCCS(=O)(=O)O)c3ccc4ccccc4c3C2(C)C)N(CCCCS(=O)(=O)O)c2ccc3ccccc3c21 [compound 1]
[1]
  Fluorescence quantum yield, fold lower than for ICG: ~100 fold
[1]; DMSO
  λ abs max: 787 nm
  λ em max: 820 nm
  ε: 327,000 M^−1cm^−1
  ΦF (fluorescence quantum yield): 0.12 ± 0.06%
  Brightness: 390
[1]; FBS
  λ abs max: 796 nm
  λ em max: 820 nm
  ε: 256,000 M^−1cm^−1
  ΦF (fluorescence quantum yield): 0.12 ± 0.04%
  Brightness: 310
[2]
  Association constant Ka, titration isotherm fitted to 1:1 model: (2.9±0.4)×10^4 M^−1
